Measured data: PubChem BioAssay AID504808 (Drosophila RNAi Screening Center, 2011)

- Screen: 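Chromatin factors that keep E2F targets switched off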 (primary screen)
- Cell system: Drosophila S2 cells
- Reagent: long dsRNA against Drosophila genes
- Measured: 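Firefly luciferase driven by E2F sites, normalised to Renilla luciferase on the same minimal promoter, measured by plate reader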
- Reading the numbers: E2F firefly: higher = more E2F reporter activity; Renilla normaliser: higher = more normaliser reporter signal
- Hit rule: 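Called active if the normalised E2F reporter went up by over 50%; the cutoff is arbitrary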
In all, the deposit lists about 21,000 reagents; shown is a random part of those with a known target gene and a result. Of all reagents, 18 (0.084%) are marked active. 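Raw counts without plate normalisation, one of two replicates; the ratio scores behind the calls were not deposited.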 Names joined by + are all predicted targets of the reagent. Not stated in the record: the amount of reagent, the time to read-out.

Target gene | dsRNA | E2F firefly, rep 1 | Renilla normaliser, rep 1 | outcome
AnxB10 | DRSC20677 | 1.42e5 | 5807 | inactive
Tim17a2 | DRSC12252 | 1.22e5 | 4996 | inactive
CG13711 | DRSC08320 | 85623 | 4043 | inactive
GlcAT-I | DRSC17307 | 81302 | 2546 | inactive
ddbt | DRSC07869 | 1.21e5 | 3891 | inactive
D1 | DRSC16638 | 69619 | 3378 | inactive
CG13872 | DRSC06431 | 1.30e5 | 5108 | inactive
CG18284 | DRSC02661 | 91145 | 3825 | inactive
CG18284 | DRSC20756 | 86626 | 3287 | inactive
CG4822 | DRSC00669 | 86467 | 3751 | inactive
CG10864 | DRSC14273 | 1.49e5 | 7999 | inactive
FucTA | DRSC10733 | 1.61e5 | 7993 | inactive
CG13634 | DRSC14635 | 1.02e5 | 5791 | inactive
mats | DRSC13562 | 89210 | 3226 | inactive
mats | DRSC14702 | 77291 | 3848 | inactive
SNRPG | DRSC20207 | 1.43e5 | 7892 | inactive
CG30105 | DRSC05668 | 1.33e5 | 6440 | inactive
CG4476 | DRSC10424 | 82429 | 3192 | inactive
isoQC | DRSC11790 | 1.46e5 | 6193 | inactive
Suv3 | DRSC12335 | 73513 | 3544 | inactive
inaF-B + inaF-D + inaF-C + 1 more | DRSC20342 | 68822 | 4617 | inactive
Dref | DRSC03319 | 55797 | 3513 | inactive
exd | DRSC20330 | 1.50e5 | 7412 | inactive
Sobp | DRSC07312 | 3172 | 191 | inactive
CG4367 | DRSC15568 | 1.59e5 | 6911 | inactive
APP-BP1 | DRSC10920 | 1.17e5 | 6545 | inactive
CG9692 | DRSC11091 | 1.73e5 | 9013 | inactive
Or65b | DRSC08809 | 1.21e5 | 4501 | inactive
RanBP3 | DRSC14217 | 66648 | 4010 | inactive
CG7950 + Rpp14a | DRSC16353 | 1901 | 820 | inactive
CG14085 | DRSC10089 | 1.25e5 | 5773 | inactive
Rbcn-3B | DRSC18574 | 1.18e5 | 5806 | inactive
DptB | DRSC06001 | 1.49e5 | 4910 | inactive
chm | DRSC03341 | 94416 | 4764 | inactive
CG15082 | DRSC06513 | 1.44e5 | 4842 | inactive
CG34196 | DRSC05704 | 1.43e5 | 6604 | inactive
CG4617 | DRSC18377 | 7703 | 708 | inactive
sut3 | DRSC07702 | 1.61e5 | 5628 | inactive
Sema2b | DRSC05609 | 1.46e5 | 6578 | inactive
Sema2b | DRSC05611 | 1.57e5 | 5963 | inactive
Sema2b | DRSC06867 | 1.40e5 | 4509 | inactive
Sxl + CG14425 (retired record) | DRSC18721 | 8365 | 700 | inactive
Sxl + CG14425 (retired record) | DRSC18722 | 1.08e5 | 5875 | inactive
ssp6 | DRSC08791 | 1.21e5 | 3783 | inactive
ssp6 | DRSC10677 | 86388 | 3497 | inactive
CG43980 | DRSC11500 | 84834 | 4552 | inactive
CG43980 | DRSC11646 | 1.36e5 | 6198 | inactive
Lerp | DRSC14750 | 1.22e5 | 5294 | inactive
Lerp | DRSC14751 | 1.09e5 | 5385 | inactive
Lerp | DRSC16030 | 1.15e5 | 6093 | inactive
Lerp | DRSC16031 | 1.21e5 | 6292 | inactive
CG15760 | DRSC19725 | 1.21e5 | 6018 | inactive
tinc | DRSC14798 | 1.40e5 | 7159 | inactive
tinc | DRSC14799 | 1.48e5 | 7579 | inactive
tinc | DRSC16308 | 1.15e5 | 6340 | inactive
tinc | DRSC16309 | 1.14e5 | 6161 | inactive
CG31819 | DRSC01532 | 1.29e5 | 5102 | inactive
